PubChem BioAssay AID1259308 – NCATS – 2017
In all, the deposit lists about 59,000 reagents; shown is a random part of them. Of all reagents, about 1,510 (2.6%) got an active call. 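Calls use total luciferase alone and ignore viability, so some active siRNAs may act by altering cell number.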 The numbers tell different reagents against one gene apart. Not all columns of the deposit are shown.

- Purpose: 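Candidate targets for better recombinant protein yield in mammalian cells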 (primary screen)
- Cell system: human HEK293 embryonic kidney cells stably expressing firefly luciferase (HEK-CMV-Luc2-Hygro)
- Reagent: single siRNA against human genes, 0.8 pmol siRNA per well
- Timing: 72 h
- Measured: 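Luciferase light (ONE-Glo) measured on one replicate plate set and viability (CellTiter-Glo) on the other, scaled to a negative control siRNA, with robust z-scores and luciferase per cell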
- Direction: total luciferase, z-score and total luciferase, % of control: higher = more reporter protein produced
- Active means: 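An siRNA counts as active if its total luciferase robust z-score exceeds 3; genes with two or more such siRNAs out of three were retested with fresh siRNAs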
- Meaning of the calls: active = raised luciferase; inactive = no rise

After knock-down of ANK3 (GeneID 288) #1, the screen gave total luciferase, z-score 1.38; total luciferase, % of control 109; inactive.
ANK3 (GeneID 288) #2 showed total luciferase, z-score 0.522; total luciferase, % of control 92.3; inactive.
For ANK3 (GeneID 288) #3 the deposit lists total luciferase, z-score -0.282; total luciferase, % of control 76.3; inactive.
CDC20B (GeneID 166979) #1 showed total luciferase, z-score 6.39; total luciferase, % of control 209; active.
Depletion of CDC20B (GeneID 166979) #2 gave: total luciferase, z-score -0.798; total luciferase, % of control 66; inactive.
With knock-down of CDC20B (GeneID 166979) #3 the results were total luciferase, z-score -1.72; total luciferase, % of control 47.7; inactive.

Active calls, among the entries above:
CDC20B (GeneID 166979) #1 → total luciferase, z-score: 6.39; total luciferase, % of control: 209; outcome: active

Next reagents follow:
HMGB1P22 (GeneID 644659) #1 gave total luciferase, z-score 0.214; total luciferase, % of control 86.1; inactive.
With knock-down of HMGB1P22 (GeneID 644659) #2, the screen gave total luciferase, z-score -0.0818; total luciferase, % of control 80.3; inactive.
Knock-down of HMGB1P22 (GeneID 644659) #3 gave: total luciferase, z-score -1.65; total luciferase, % of control 49.1; inactive.
RBIS (GeneID 401466) #1 scored total luciferase, z-score -0.591; total luciferase, % of control 70.1; inactive.
Knock-down of RBIS (GeneID 401466) #2 came out at: total luciferase, z-score 0.518; total luciferase, % of control 92.2; inactive.
RBIS (GeneID 401466) #3 scored total luciferase, z-score 2.89; total luciferase, % of control 139; inactive.
